Measured values as given in PubChem BioAssay AID1671190 (National Center for Advancing Translational Sciences (NCATS), 2021).
About 6,100 (1.1%) of roughly 580,000 compounds were called active. Inconclusive results, whose numbers are uncertain, are shown with a selection of clear calls. Calls come from the whole dose curve; as a rule, active = well fitted inhibition curve with a large enough effect; inconclusive = small, poorly fitted or top-dose-only effect, or another doubt; inactive = no such curve, though single readings can be large or run the other way. A potency beside an inconclusive call is a rough fit, not a confirmed value.

Amino acid sequences for entries named in this document (tags omitted). A change or cut given only in a name is not applied to a line headed by its entry.
UniProt P18054: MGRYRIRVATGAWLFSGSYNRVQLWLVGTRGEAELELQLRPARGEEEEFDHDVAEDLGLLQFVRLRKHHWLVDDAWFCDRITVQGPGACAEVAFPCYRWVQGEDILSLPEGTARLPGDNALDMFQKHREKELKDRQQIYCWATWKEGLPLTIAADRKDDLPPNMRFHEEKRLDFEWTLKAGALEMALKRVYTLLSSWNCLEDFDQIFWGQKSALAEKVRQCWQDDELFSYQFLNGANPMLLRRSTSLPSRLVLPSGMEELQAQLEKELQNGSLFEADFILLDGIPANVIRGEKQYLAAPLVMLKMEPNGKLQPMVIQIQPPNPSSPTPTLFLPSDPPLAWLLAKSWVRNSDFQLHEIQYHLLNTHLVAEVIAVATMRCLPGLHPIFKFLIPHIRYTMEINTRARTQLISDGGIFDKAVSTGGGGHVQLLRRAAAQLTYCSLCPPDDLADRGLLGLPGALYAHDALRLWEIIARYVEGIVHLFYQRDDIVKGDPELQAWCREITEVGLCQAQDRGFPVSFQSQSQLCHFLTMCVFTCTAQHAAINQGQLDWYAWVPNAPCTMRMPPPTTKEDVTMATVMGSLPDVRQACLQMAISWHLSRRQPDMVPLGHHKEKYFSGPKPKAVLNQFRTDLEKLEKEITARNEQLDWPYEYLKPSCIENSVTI

The compounds below were run against Polyunsaturated fatty acid lipoxygenase ALOX12 (Homo sapiens) (UniProt P18054) (assay: Primary qHTS assay for inhibitors of human arachidonate 12S-lipoxygenase (ALOX12): Round 2). Conditions: purified 12hLO, xylenol orange hydroperoxide absorbance; activity change, negative = inhibition: at 108 µM (top of the series) unless noted.
In short: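 Purified human 12hLO (150 nM final) in 25 mM Hepes, 0.01% Triton X-100, pH 7.0 was preincubated 15 min at room temperature with compound. Then 40 uM arachidonic acid was added, 30 min. Hydroperoxide was read by Fe-XO absorbance ratio 573/405 nm.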
% is set by controls: 0 for no effect and ±100 for the full control effect; potency is the fitted concentration of half-maximal effect.

Structure (SMILES) | Potency | activity change, negative = inhibition
Cc1ccc(Cn2c(S(=O)(=O)O)nc3ccccc32)cc1 | inconclusive: 28.2 µM [inhibitor, partial curve, poor fit] | –
Cc1ccc(Cn2nc(C)c(NC(=O)Nc3cccc(F)c3)c2C)cc1 | inconclusive: 112 µM [inhibitor, partial curve, poor fit] | –
N#Cc1cc2c(nc1N1CCN(C(C(=O)O)c3c[nH]c4ccccc34)CC1)CCCC2 (stereo not given) | – | inactive: -1.59%
Cc1ccc(C)c(N2CCN(CCCNC(=O)c3ccc4nc(C(C)C)oc4c3)CC2)c1 | inconclusive: 50.1 µM [inhibitor, partial curve, poor fit] | –
S=C(CN1CCCC1=S)N1CCOCC1 | inconclusive: 89.1 µM [inhibitor, partial curve, poor fit] | –
COc1cccc(-c2cn3c(n2)sc2cc(C(=O)NCCc4ccccc4)ccc23)c1 | inconclusive: 63.1 µM [inhibitor, partial curve, poor fit] | –
CCc1cccc(C)c1NC(=O)COC(=O)c1ccc(C2Nc3ccccc3S(=O)(=O)N2)cc1 (stereo not given) | – | inactive: -26.1%
CCN1C(=O)c2cccc3c(S(=O)(=O)NCCCN4CCOCC4)ccc1c23 | – | inactive: 0%
CCCn1c(N)c(-c2csc(Nc3ccc(F)cc3)n2)c(=O)n(C)c1=O | inconclusive: 28.2 µM [inhibitor, partial curve, poor fit] | –
CCCCN(C(=O)c1ccc(Cl)cc1)C1CC2CCC(C1)N2C (stereo not given) | – | inactive: 0.13% [at 57.4 µM]
Cc1oc2ccccc2c1CC(=O)NCCCN(C)C | inconclusive: 100 µM [inhibitor, partial curve, poor fit] | –
N#Cc1cc(-c2ccccc2)cnc1Sc1ccccc1 | – | inactive: 0.932%
Cc1cc(O)c(/C=N/Nc2ccccc2Cl)c(=O)o1 | inconclusive: 89.1 µM [inhibitor, partial curve, poor fit] | –
Clc1ccc(Cn2c(CN3CCOCC3)nc3ccccc32)c(Cl)c1 | – | inactive: 24.6%
O=[N+]([O-])c1ccc(C2NS(=O)(=O)N=C3CCCCCN32)cc1 (stereo not given) | – | inactive: 13%
Cc1cc(C)c2c(CC(=O)NCc3ccccc3)coc2c1 | – | inactive: -1.48%
CCCCOc1cccc(N)c1 | inconclusive: 63.1 µM [inhibitor, partial curve, poor fit] | –
CCCn1c2ccc(C)cc2c2nnc(SCCN3CCCCC3)nc21 | inconclusive: 50.1 µM [inhibitor, partial curve, poor fit] | –
N#Cc1c(NC(=O)c2ccnn2C(F)F)sc2c1CCC2 | inconclusive: 7.08 µM [inhibitor, full curve, poor fit] | –
Cc1nn(CC(=O)N(Cc2ccccc2)C2CC2)c(=O)c2ccccc12 | – | inactive: -17%

A stretch from further up, for reference:
Structure (SMILES) | Potency | activity change, negative = inhibition
CCCn1c(N)c(-c2csc(Nc3ccc(F)cc3)n2)c(=O)n(C)c1=O | inconclusive: 28.2 µM [inhibitor, partial curve, poor fit] | –
CCCCN(C(=O)c1ccc(Cl)cc1)C1CC2CCC(C1)N2C (stereo not given) | – | inactive: 0.13% [at 57.4 µM]
